From PubChem BioAssay AID504834 (National Center for Advancing Translational Sciences (NCATS), 2011)
Out of some 320,000 compounds screened, about 22,000 (6.9%) were called active. The inconclusive results got no clear call from the source; some entries with a clear call stand among them for comparison. The call rests on the fitted dose curve; in most records, active means well fitted inhibition curve with a large enough effect; inconclusive means small, poorly fitted or top-dose-only effect, or another doubt; inactive means no such curve, though single readings can be large or run the other way. A potency beside an inconclusive call is a rough fit, not a confirmed value.

Test: Primary qHTS for delayed death inhibitors of the malarial parasite plastid, 96 hour incubation
Conditions: P. falciparum luciferase reporter growth; series mostly up to 28.7 µM
Method in brief: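 Luminescence readout: decreased luciferase signal marks inhibited growth of reporter-expressing P. falciparum in infected red cells (2% hematocrit, 0.05% parasitemia final), exposed to compound two generations (96 h, 37 C, 5% CO2).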
Potency means the concentration at half of the fitted maximal effect.

Structure (SMILES) | Potency
O=C(CN1CCOCC1)Nc1ccc2c(c1)CCC2 | inactive
O=C(CN1C(=O)CCC1=O)Nc1nc(-c2nc3ccccc3s2)cs1 | inactive
O=C(COc1ccc([N+](=O)[O-])cc1)Nc1ccc2c(c1)nc1n2CCOC1 | inconclusive: 3.29 µM [inhibitor, partial curve, poor fit]
Cc1cc(C)cc(NC(=O)c2ccc3c(c2)CCN3S(C)(=O)=O)c1 | inactive
O=C(Nc1ccc2c(c1)OCCO2)C1CCCN(S(=O)(=O)c2cccnc2)C1 (centres undefined) | inconclusive: 0.828 µM [inhibitor, full curve, poor fit]
CCOc1ccc(NC(=O)c2ccc(NC(=O)c3ccccc3Br)cc2)cc1 | inactive
C/C(=N/OCO/N=C(\C)c1ccccc1F)c1ccccc1F | active: 1.65 µM
CCn1c(=O)c([N+](=O)[O-])c(NCC2CCCO2)c2ccccc21 (centres undefined) | inconclusive: 18.5 µM [inhibitor, single point]
CCN(c1cccc(C)c1)S(=O)(=O)c1ccc(-c2cc(C)no2)s1 | active: 11.7 µM
O=C(c1ccccc1NS(=O)(=O)c1ccc(F)cc1)N1CCCCC1 | inconclusive: 18.5 µM [inhibitor, single point]
COc1ccccc1NC(=O)Cn1cnc2sc(C(=O)Nc3ccc(OC)c(OC)c3)c(C)c2c1=O | inconclusive: 2.62 µM [inhibitor, partial curve, poor fit]
CNc1cc(-n2nc(C)cc2-c2ccccc2)ncn1 | inactive
CCOc1c(Br)cc(CNc2ccc(N3CCN(C(C)=O)CC3)cc2)cc1OC | inconclusive: 18.5 µM [inhibitor, single point]
CC(C)CNS(=O)(=O)c1cc2c3c(c1)CCC(=O)N3CCC2 | inconclusive: 0.465 µM [inhibitor, full curve, poor fit]
O=C(NCc1ccco1)C(=O)NCC1OCCN1S(=O)(=O)c1ccc(Cl)cc1 (centres undefined) | inconclusive: 18.5 µM [inhibitor, single point]
CCS(=O)(=O)N1CCC(c2nc(-c3ccc(C)cc3)no2)CC1 | inconclusive: 1.85 µM [inhibitor, partial curve, poor fit]
Cc1ccn2cc(CCNC(=O)CC3CCCCC3)nc2c1 | inactive
Cc1nc2ncnn2c(C)c1CCC(=O)NCCCN1CCN(c2cccc(Cl)c2)CC1 | inconclusive: 18.5 µM [inhibitor, single point]
COc1ccc(Cl)cc1Nc1nc(N)c2ccccc2n1 | inconclusive: 18.5 µM [inhibitor, single point]
Cc1ncc(CO)c2c1Oc1nc(-c3ccccc3)nc(SCC(=O)N3CCCCC3)c1C2 | inconclusive: 18.5 µM [inhibitor, single point]
O=C(COC(=O)C1CCN(c2ccc(C(F)(F)F)cn2)CC1)Nc1ccc(Cl)cn1 | inconclusive: 11.7 µM [inhibitor, single point]
O=C(CCNC(=O)C1CCN(S(=O)(=O)c2ccc(F)cc2)CC1)NCc1cccc(Cl)c1 | inconclusive: 18.5 µM [inhibitor, single point]
CCOC(=O)C1CCCN(C(=O)c2ccc(S(=O)(=O)N3CCCC3)cc2)C1 (centres undefined) | inactive

Structure (SMILES) | Potency
C[n+]1cn(Cc2cc(Cl)ccc2OC(F)F)c2ccccc21 | inconclusive: 4.65 µM [inhibitor, partial curve]
O=C(Nc1ccccc1C(=O)N1CCCCCC1)c1cccc(S(=O)(=O)N2CCOCC2)c1 | inconclusive: 5.86 µM [inhibitor, partial curve]
CCn1cc(C=O)c2cc(S(=O)(=O)N3CCOCC3)ccc21 | inconclusive: 9.28 µM [inhibitor, partial curve, poor fit]
Cc1ccc(-n2nnnc2SCC(=O)N(CC(C)C)c2c(N)n(CC(C)C)c(=O)[nH]c2=O)cc1 | inconclusive: 5.86 µM [inhibitor, partial curve, poor fit]
CCSC1=NC(C)(C)C=C(C)N1 | inactive
O=C(NNS(=O)(=O)c1ccccc1)c1ccc(O)cc1 | inconclusive: 1.47 µM [inhibitor, partial curve, poor fit]
Cc1c(Cl)cccc1NC(=S)N1CCC(C(N)=O)(N2CCCCC2)CC1 | inconclusive: 10.4 µM [inhibitor, partial curve, poor fit]
CCCCNC(=O)N1CCN(c2ccccc2OCC)CC1 | inconclusive: 18.5 µM [inhibitor, partial curve, poor fit]
Cn1c(Cn2c(=O)sc3ccccc32)nnc1SCC(=O)NC1CCCC1 | inconclusive: 13.1 µM [inhibitor, partial curve, poor fit]
Cn1c(=O)c2c(nc(N/N=C/c3cccnc3)n2Cc2ccccc2)n(C)c1=O | inconclusive: 11.7 µM [inhibitor, partial curve, poor fit]
Cn1c2ccccc2c(=O)c2c(=O)n(-c3ccc(F)cc3)c(-c3cccs3)nc21 | active: 5.22 µM
O=C(C1CCCN(Cc2cccc(Cl)c2)C1)N1CCCCC1 (centres undefined) | inactive
O=c1cnnc(N/N=C/c2cccs2)[nH]1 | inconclusive: 5.22 µM [inhibitor, partial curve]
CC1=C(C(=O)Nc2ccccc2)C(c2ccco2)C(C#N)=C(SCC(N)=O)N1 (centres undefined) | inconclusive: 0.522 µM [inhibitor, full curve, poor fit]
CCOC(=O)c1c(S(=O)(=O)N2CCC(C)CC2)c(C)n(C)c1C | active: 8.28 µM
Cc1cccc(Nc2nc3ccccc3s2)c1C | inactive
CS(=O)(=O)c1ccc(Cl)c(NC(=O)COC(=O)c2cccc(S(=O)(=O)N3CCCCC3)c2)c1 | inactive
CC1(C)Cc2c(cnn2-c2ccccc2)C(NC(=O)CCCn2cncn2)C1 (centres undefined) | active: 11.7 µM
COc1ccc(CC(=O)Nc2ccc(S(=O)(=O)Nc3onc(C)c3C)cc2)cc1OC | inconclusive: 14.7 µM [inhibitor, partial curve]
COc1ccc2c(c1OC)C(=O)OC2N1C(=O)CC[C@H]1C(=O)NCC1CCCO1 (some centres undefined) | inactive
Cn1nnc(NC(=S)NC(=O)c2cccc3c(Cl)cccc23)n1 | inconclusive: 13.1 µM [inhibitor, single point]
OCCN1CCN(c2nc(NCc3ccco3)c3ccccc3n2)CC1 | active: 9.28 µM
CCn1c(SCC(=O)c2cccs2)nnc1-c1ccco1 | inactive

Sorted by SMILES length (descending): 3 of the compounds above
Structure (SMILES) | Potency
Cc1ncc(CO)c2c1Oc1nc(-c3ccccc3)nc(SCC(=O)N3CCCCC3)c1C2 | inconclusive: 18.5 µM [inhibitor, single point]
Cn1nnc(NC(=S)NC(=O)c2cccc3c(Cl)cccc23)n1 | inconclusive: 13.1 µM [inhibitor, single point]
COc1ccc(Cl)cc1Nc1nc(N)c2ccccc2n1 | inconclusive: 18.5 µM [inhibitor, single point]

Further entries.

Structure (SMILES) | Potency
CC(C)(C)[C@@H]1C=C(C(=O)NCc2ccccc2)O[C@H](OCc2ccc(CO)cc2)C1 | inactive
Cc1ccccc1CSc1nnc(NC(=O)C2COc3ccccc3O2)s1 (centres undefined) | inconclusive: 11.7 µM [inhibitor, single point]
Cn1cc(CNCc2ccccc2OCC(O)CN2CCc3ccccc3C2)cn1 (centres undefined) | inactive
CN(CCNC(=O)CN1CCN(Cc2ccccc2Cl)C1=O)Cc1ccccc1 | inconclusive: 18.5 µM [inhibitor, single point]
Cc1cc(NC(=O)C(C)SCC(=O)Nc2cc(Cl)ccc2N2CCN(C)CC2)no1 (centres undefined) | inconclusive: 18.5 µM [inhibitor, single point]
CCN(CC)CCC(c1cc(OC)c(OC)c(OC)c1)c1c(OC)cc(OC)c2c(-c3ccccc3)cc(=O)oc12 (centres undefined) | active: 2.94 µM
N#CC1(NC(=O)COC(=O)/C=C/c2ccc3ccccc3n2)CCCCC1 | inconclusive: 18.5 µM [inhibitor, single point]
Cc1cc(C)n(CC(=O)N2c3ccccc3Sc3ccc(C(F)(F)F)cc32)n1 | inconclusive: 13.1 µM [inhibitor, single point]
CCN(C(=O)CN1CC=C(c2ccccc2)CC1)c1c(N)n(Cc2ccccc2)c(=O)[nH]c1=O | inconclusive: 5.86 µM [inhibitor, single point]
CC1(C)CC2CC(C)(CN2C(=O)COC(=O)c2ccc(Cl)cc2N)C1 (centres undefined) | inactive
COc1ccc2c(c1)c(C(=O)CN1CCN(Cc3ccccc3)CC1)c(C)n2C | inconclusive: 18.5 µM [inhibitor, single point]
COCC(C)NC(=O)CSc1nc2cc(S(=O)(=O)N3CCCCC3)ccc2o1 (centres undefined) | inconclusive: 18.5 µM [inhibitor, single point]
O=C(Nc1cccc(S(=O)(=O)N2CCCC2)c1)c1ccncc1 | inconclusive: 18.5 µM [inhibitor, single point]
O=C(NCc1cccnc1)c1cc([N+](=O)[O-])ccc1N1CCOCC1 | inconclusive: 2.94 µM [inhibitor, partial curve, poor fit]
Cc1ccc2c(c1)C1CN(C)CCC1N2C(=S)NC(=O)c1ccc(Cl)cc1Cl (centres undefined) | active: 5.86 µM
C(#Cc1ccccc1)C[N+]1(CC#Cc2ccccc2)CCCC1 | inconclusive: 13.1 µM [inhibitor, partial curve, poor fit]
COc1ccc(Cl)cc1NC(=O)C(C)N1CCc2ccccc21 (centres undefined) | inconclusive: 18.5 µM [inhibitor, single point]
O=C(NCc1ccc(Cl)cc1)c1cc2ccccc2oc1=O | active: 5.22 µM
COCCN(C(=O)COC(=O)c1nc(Cl)ccc1Cl)c1c(N)n(Cc2ccccc2)c(=O)[nH]c1=O | inactive
COc1ccc(OC(=O)CCN2C(=O)C3C4C=CC(C4)C3C2=O)cc1 (centres undefined) | inconclusive: 18.5 µM [inhibitor, single point]
Cc1cnc(C(=O)Nc2cccc3ncccc23)cn1 | inconclusive: 11.7 µM [inhibitor, partial curve, poor fit]
Cc1cc(C)cc(-n2c(C)cc(/C=N/NC(=O)c3cccc([N+](=O)[O-])c3C)c2C)c1 | active: 11.7 µM
O=C(CSc1nccn1-c1ccc(F)cc1)NCc1ccc(F)cc1 | inconclusive: 5.86 µM [inhibitor, partial curve, poor fit]
